The text below walks through data of publication PMC11236980.

By UniProt entry, the sequences of proteins in these tests, tags left out. Where a name states a change or a piece, a line headed by the entry shows the natural chain unless it says otherwise. Residues count along the entry.
UniProt O75417, 1-894: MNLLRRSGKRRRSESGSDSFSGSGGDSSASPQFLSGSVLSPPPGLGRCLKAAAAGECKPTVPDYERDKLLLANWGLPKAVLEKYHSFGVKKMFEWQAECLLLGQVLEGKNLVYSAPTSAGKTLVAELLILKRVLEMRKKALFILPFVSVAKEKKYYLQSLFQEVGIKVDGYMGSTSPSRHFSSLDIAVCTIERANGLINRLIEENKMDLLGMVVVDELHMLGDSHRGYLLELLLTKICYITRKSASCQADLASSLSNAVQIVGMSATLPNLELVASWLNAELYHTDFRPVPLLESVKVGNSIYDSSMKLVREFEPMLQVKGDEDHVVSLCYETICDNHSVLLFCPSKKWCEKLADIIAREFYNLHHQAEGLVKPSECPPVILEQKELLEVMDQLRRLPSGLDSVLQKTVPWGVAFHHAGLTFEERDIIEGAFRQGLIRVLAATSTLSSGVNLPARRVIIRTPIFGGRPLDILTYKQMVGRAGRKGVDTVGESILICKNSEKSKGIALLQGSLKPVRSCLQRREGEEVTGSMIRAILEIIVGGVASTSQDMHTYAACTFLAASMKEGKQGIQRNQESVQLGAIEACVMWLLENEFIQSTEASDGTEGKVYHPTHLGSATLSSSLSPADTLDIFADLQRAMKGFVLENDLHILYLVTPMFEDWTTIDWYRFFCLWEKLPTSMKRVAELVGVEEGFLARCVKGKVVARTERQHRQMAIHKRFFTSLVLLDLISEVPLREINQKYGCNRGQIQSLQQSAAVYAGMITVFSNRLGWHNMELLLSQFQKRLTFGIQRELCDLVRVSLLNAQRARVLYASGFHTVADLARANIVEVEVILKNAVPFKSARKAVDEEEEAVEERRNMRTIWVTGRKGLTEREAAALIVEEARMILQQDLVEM

For at least one entry, the source does not settle the construct or the ends of the probe. For some of these results: Negatives hold for the conditions tested. For some of these results: At least one verdict was read from the data and is not stated in words by the source. For some of these results: Protein sequences can lack the tags named with them.

Common to all, as to assay: EMSA
In data set [1] the target is Polθ-hel (human) (UniProt O75417). The settings on record: ADP-ribose (ADR) competitor, not significantly inhibited; 25 mM Tris-HCl pH 7.5, 5 mM MgCl2, 30 mM NaCl, 5% glycerol, 0.1 mg/mL BSA, 1 mM DTT; PARylation 20 min 37 °C, binding at room temperature; 8% native PAGE 0.5x TBE; recombinant protein; label: 5'-Cy3 on strand 1.
The target in data set [2] is T1, Polθ-pol (human) (UniProt O75417).
T1 sequence (looked up, limits assumed): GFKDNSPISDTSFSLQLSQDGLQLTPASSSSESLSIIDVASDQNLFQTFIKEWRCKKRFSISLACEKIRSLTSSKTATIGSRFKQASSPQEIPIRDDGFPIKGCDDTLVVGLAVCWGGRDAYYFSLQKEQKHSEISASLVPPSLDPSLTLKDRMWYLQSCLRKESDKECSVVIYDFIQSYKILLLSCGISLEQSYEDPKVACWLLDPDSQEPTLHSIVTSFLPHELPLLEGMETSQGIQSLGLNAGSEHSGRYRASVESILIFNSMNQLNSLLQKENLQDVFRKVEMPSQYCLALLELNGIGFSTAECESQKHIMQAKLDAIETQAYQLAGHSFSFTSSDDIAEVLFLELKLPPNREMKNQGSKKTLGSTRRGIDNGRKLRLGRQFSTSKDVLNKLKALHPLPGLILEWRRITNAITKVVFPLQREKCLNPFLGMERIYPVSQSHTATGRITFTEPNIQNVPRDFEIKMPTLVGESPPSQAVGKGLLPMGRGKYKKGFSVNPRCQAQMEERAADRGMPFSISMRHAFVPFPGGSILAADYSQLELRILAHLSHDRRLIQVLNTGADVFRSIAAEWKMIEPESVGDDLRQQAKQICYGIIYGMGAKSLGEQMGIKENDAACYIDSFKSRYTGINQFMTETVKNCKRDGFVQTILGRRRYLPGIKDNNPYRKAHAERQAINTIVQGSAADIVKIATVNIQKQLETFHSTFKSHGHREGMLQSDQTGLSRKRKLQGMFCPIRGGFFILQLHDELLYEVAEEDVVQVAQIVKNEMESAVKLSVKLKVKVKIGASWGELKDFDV
The settings on record: ADP-ribose (ADR) competitor, not inhibited; 25 mM Tris-HCl pH 7.5, 5 mM MgCl2, 30 mM NaCl, 5% glycerol, 0.1 mg/mL BSA, 1 mM DTT; PARylation 20 min 37 °C, binding at room temperature; 8% native PAGE 0.5x TBE; recombinant protein; label: 5'-Cy3 on strand 1.

Data set [3] addresses Polθ-hel, PARylated by PARP1 (human) (UniProt O75417). Conditions: with PARP1 25 nM, 100 uM NAD+ and PAS; 25 mM Tris-HCl pH 7.5, 5 mM MgCl2, 30 mM NaCl, 5% glycerol, 0.1 mg/mL BSA, 1 mM DTT; PARylation 20 min 37 °C, binding at room temperature; 8% native PAGE 0.5x TBE; recombinant protein; label: 5'-Cy3; single-stranded DNA.
The target in data set [4] is PolθΔcen, PARylated by PARP1 (human) (UniProt O75417). The settings on record: with PARP1 25 nM, 100 uM NAD+ and PAS; 25 mM Tris-HCl pH 7.5, 5 mM MgCl2, 30 mM NaCl, 5% glycerol, 0.1 mg/mL BSA, 1 mM DTT; PARylation 20 min 37 °C, binding at room temperature; 8% native PAGE 0.5x TBE; recombinant protein; protein details: 3xFLAG; label: 5'-Cy3; single-stranded DNA.

As to “CACTGTGAGCTTAGGGTTAGAGCCGG (double strand) [dsDNA (RP348/RP348c)]”, the binding result in data set [1] and in data set [2] was “binds” in each case.

For the sequence “TTTTTTTTTTTTTTTTTTTTTTTTTTTTT [RP316-Cy3]”, the binding result in data set [3] and in data set [4] was “no binding” each time.
